# Test results reported in article PMC8353494.
# The chains behind the UniProt entries cited, without tags or fusion partners.
# UniProt E9Q8Q6: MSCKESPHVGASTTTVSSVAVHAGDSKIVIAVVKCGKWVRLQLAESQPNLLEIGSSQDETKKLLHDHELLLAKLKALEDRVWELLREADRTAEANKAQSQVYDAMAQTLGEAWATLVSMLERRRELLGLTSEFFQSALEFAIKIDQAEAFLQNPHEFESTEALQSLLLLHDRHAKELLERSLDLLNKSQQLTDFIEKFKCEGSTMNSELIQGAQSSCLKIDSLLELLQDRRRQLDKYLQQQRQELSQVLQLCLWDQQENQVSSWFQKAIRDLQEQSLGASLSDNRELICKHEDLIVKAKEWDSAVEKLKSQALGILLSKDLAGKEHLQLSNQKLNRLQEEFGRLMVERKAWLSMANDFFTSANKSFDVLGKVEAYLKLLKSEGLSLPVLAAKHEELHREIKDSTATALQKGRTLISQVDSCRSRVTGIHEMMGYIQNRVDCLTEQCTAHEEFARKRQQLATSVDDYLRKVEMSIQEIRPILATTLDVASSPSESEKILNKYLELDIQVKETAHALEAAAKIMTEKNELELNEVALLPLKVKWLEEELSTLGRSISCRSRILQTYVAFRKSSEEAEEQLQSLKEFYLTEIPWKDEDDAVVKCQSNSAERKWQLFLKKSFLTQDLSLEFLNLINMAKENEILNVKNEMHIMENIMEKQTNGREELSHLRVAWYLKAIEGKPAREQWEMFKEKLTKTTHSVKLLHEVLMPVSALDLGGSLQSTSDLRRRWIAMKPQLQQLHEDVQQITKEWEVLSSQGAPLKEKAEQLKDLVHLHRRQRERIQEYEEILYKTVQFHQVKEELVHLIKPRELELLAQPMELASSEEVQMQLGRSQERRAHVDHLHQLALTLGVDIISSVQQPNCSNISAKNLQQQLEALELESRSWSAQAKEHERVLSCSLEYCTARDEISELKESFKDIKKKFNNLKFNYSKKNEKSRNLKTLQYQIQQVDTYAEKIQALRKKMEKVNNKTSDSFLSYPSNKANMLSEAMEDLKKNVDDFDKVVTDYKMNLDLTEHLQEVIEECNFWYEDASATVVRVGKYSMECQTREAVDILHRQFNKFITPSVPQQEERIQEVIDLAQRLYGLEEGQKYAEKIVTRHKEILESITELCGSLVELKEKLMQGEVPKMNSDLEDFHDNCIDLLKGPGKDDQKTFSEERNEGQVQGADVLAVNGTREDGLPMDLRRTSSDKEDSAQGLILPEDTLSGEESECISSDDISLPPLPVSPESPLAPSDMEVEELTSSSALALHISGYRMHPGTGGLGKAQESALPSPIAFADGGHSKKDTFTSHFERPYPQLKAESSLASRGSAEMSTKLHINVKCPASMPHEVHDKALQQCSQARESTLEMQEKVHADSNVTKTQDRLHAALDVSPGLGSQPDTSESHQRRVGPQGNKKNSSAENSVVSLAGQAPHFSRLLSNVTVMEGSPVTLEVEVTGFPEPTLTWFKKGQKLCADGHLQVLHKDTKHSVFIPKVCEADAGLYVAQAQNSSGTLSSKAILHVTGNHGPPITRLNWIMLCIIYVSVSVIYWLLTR
# UniProt Q9JJ66: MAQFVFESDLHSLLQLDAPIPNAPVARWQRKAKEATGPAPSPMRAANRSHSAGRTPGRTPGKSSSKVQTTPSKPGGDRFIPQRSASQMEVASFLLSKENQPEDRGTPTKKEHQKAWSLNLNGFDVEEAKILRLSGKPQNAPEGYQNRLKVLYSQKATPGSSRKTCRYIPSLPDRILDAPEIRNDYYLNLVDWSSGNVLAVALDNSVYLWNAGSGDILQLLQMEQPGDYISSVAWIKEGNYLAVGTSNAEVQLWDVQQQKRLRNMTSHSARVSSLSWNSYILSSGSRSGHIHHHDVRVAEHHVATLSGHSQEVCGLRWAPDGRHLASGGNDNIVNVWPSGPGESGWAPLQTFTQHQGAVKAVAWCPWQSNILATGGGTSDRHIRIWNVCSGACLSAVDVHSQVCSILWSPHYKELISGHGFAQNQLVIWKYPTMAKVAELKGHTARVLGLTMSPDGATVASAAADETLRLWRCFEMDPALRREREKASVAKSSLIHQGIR
# UniProt Q12834: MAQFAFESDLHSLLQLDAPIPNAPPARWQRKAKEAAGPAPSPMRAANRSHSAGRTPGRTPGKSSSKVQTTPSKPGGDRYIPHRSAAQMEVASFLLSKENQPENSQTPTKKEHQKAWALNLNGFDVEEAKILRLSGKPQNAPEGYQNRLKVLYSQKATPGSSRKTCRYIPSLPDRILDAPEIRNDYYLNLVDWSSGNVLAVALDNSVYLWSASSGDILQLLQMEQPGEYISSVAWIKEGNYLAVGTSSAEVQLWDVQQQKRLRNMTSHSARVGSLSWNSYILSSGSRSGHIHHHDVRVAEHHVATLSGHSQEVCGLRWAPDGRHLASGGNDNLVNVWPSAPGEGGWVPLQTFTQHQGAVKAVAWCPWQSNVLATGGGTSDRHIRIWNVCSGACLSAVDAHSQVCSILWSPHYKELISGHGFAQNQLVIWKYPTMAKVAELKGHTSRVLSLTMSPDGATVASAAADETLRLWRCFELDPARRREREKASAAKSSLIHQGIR
# Results are given in words; binding and its absence hold for the method and conditions named. Binding seen in cells or lysates may run through a third protein. Some results given as binding are weak or reduced against the parent protein; the word gives no strength.
# Key:
# [1] = target: FLAG-CAMDI (coiled-coil protein associated with MRLC IIa and DISC1), mouse full-length (mouse) (UniProt E9Q8Q6); assay: co-IP; HeLa cells cotransfected with FLAG-CAMDI and EGFP-Cdc20; lysate in Nonidet P-40 lysis buffer (20 mM Tris HCl pH 7.2, 2 mM EDTA, 0.5% NP-40, 8% sucrose, 80 mM DTT); immunoprecipitation with anti-FLAG (Fig. 4A) or anti-EGFP (Fig. 4B) antibody, immunoblot
# [2] = target: FLAG-CAMDI (coiled-coil protein associated with MRLC IIa and DISC1), mouse full-length (mouse) (UniProt E9Q8Q6); assay: co-IP; HeLa cells transfected with FLAG-CAMDI alone; immunoprecipitation and immunoblot for endogenous partners (Fig. 4C, 4E); Nonidet P-40 lysis buffer
# [3] = target: endogenous CAMDI (cortical neurons) (mouse (endogenous in cortical neurons)) (UniProt E9Q8Q6); assay: co-IP; endogenous proteins in cortical neurons (Fig. S7); details not shown
# [4] = target: EGFP-Cdc20 (cell division cycle protein 20) (UniProt Q9JJ66); assay: co-IP; HeLa cells cotransfected with FLAG-CAMDI and EGFP-Cdc20; lysate in Nonidet P-40 lysis buffer (20 mM Tris HCl pH 7.2, 2 mM EDTA, 0.5% NP-40, 8% sucrose, 80 mM DTT); immunoprecipitation with anti-FLAG (Fig. 4A) or anti-EGFP (Fig. 4B) antibody, immunoblot
substance,measurement,setting,value
EGFP-Cdc20 (cell division cycle protein 20) (from UniProt Q9JJ66 1-499),binding,[1],binds
endogenous Cdc20 (HeLa) (from UniProt Q12834 1-499),binding,[2],binds
endogenous Cdc20 (cortical neurons) (from UniProt Q9JJ66 1-499),binding,[3],binds
"FLAG-CAMDI (coiled-coil protein associated with MRLC IIa and DISC1), mouse full-length (from UniProt E9Q8Q6 1-1531)",binding,[4],binds
